Laboratory results as given in US5079157A, “Novel choline oxidase and method for producing the same” (priority 1988, dated 1992).
At least one compound was matched to its structure with a doubt left.

Columns and labels:
[1] = test system: choline oxidase; assay: Substrate specificity of choline oxidase (authentic sample of Example 1); format: biochemical, Streptomyces thermoluteus subsp. fuscus C-19; conditions: substrate used in place of choline chloride; relative to choline; enzyme of Example 1; Tris-HCl pH 8.0, 37° C
Procedure: Enzymatic activity (U/ml)=ΔA/min.×10.17×dilution ratio
According to the above determination method of enzymatic activity, various substrates shown in Table 2 were used in place of choline chloride in the reaction mixture, their relative activities to choline were determined. As the enzyme, the authentic sample obtained in Example 1 hereinafter was employed.

[2] = test system: choline oxidase (authentic sample T); conditions: authentic sample T (Example 10)
[3] = biological target: T1, choline oxidase (authentic sample S) (Saccharopolyspora hirsuta, UniProt A0A5M7BLR6); conditions: authentic sample S (Example 11)
T1 sequence (A0A5M7BLR6 1-515): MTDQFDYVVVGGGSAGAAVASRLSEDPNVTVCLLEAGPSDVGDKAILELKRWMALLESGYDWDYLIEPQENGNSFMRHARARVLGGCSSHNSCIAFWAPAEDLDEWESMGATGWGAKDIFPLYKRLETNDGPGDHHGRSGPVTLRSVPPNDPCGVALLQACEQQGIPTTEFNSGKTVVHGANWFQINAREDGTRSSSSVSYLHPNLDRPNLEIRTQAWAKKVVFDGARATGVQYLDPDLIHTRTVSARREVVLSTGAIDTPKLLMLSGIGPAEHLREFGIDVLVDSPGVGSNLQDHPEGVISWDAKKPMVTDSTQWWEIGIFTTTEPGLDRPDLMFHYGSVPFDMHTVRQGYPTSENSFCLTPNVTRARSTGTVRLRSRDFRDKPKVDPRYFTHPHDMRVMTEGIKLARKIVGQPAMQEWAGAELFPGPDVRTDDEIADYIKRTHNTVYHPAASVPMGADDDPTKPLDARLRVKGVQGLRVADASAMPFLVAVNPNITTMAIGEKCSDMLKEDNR

CN(C)CCO [Dimethylaminoethanol]
Relative activity (%) [1]: 10% | reactivity of the enzyme to the substrate [2]: showed reactivity | reactivity of the enzyme to the substrate [3]: showed reactivity
